In this assay the target is F508delCFTR (Homo sapiens, UniProt P13569, DEL508-508). Description: Cell Surface Expression-Horse Radish Peroxidase (CSE-HRP) Assay.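 For Maximum % activity (with co-corrector): co-corrector and positive control are both the same reference corrector at 2 µM.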 The class given is cell-based.

Amino acid sequences for entries named in this document (tags omitted). Chains listed by the source or under a name are the forms on record and can include a tag or linker.
UniProt P13569, with tags, fused parts or gaps DEL508-508: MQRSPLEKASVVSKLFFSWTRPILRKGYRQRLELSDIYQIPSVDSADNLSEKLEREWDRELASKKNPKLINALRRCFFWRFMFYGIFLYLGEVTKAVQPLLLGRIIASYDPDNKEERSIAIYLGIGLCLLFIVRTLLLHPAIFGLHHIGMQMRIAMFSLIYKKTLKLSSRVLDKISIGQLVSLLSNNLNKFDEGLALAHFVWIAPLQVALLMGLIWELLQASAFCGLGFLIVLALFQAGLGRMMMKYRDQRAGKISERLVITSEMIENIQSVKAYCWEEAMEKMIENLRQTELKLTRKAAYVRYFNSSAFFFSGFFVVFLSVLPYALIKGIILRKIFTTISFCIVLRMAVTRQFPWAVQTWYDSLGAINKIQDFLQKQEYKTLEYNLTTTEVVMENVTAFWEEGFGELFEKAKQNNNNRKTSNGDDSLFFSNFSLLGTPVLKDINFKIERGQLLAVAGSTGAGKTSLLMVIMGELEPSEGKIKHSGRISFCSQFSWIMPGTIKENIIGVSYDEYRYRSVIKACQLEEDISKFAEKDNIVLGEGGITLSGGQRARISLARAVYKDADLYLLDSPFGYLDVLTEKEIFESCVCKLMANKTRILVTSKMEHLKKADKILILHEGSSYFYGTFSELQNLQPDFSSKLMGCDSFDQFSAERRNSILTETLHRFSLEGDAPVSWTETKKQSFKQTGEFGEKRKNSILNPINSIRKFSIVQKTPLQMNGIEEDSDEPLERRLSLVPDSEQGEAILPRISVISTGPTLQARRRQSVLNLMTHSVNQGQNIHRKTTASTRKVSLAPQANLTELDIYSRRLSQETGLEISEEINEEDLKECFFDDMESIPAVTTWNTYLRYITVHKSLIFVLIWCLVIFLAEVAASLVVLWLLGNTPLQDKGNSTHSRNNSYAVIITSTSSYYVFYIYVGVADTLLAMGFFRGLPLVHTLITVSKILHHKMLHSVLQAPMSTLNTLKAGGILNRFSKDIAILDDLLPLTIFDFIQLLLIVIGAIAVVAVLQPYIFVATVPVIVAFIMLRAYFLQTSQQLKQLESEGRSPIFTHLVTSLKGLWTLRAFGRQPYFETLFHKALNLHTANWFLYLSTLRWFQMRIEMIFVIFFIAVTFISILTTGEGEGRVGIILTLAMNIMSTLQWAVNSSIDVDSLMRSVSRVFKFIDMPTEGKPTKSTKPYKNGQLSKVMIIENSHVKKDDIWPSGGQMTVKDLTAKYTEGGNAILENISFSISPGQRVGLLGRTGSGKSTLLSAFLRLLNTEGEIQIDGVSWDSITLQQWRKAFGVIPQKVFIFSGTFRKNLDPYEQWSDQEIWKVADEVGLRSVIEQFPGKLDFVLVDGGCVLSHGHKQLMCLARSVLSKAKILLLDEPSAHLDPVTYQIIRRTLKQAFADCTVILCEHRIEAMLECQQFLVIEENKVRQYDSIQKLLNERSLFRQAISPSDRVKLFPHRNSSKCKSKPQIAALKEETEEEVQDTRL

One molecule from patent US20180099931A1 (AbbVie S.à.r.l., priority 2016, published 2018) can be followed below.

The structures appear in SMILES notation. Like-named read-outs stand apart in the source and are kept apart here. The match of structure and compound is tentative.

In general, EC50 refers to the midpoint of the concentration-response curve. For `CC(C)(CN[C@H]1[C@H](C(C)(C)C)[C@@H](C(=O)O)N(C(=O)C2CCCCC2)[C@H]1c1ccccc1)c1ccc(Cl)cc1`, the half-maximal effective concentration (EC50) is, setting by setting: (read-out: EC50 (with co-corrector), with co-corrector (2 μM of 3-[(2R,4R)-4-({[1-(2,2-difluoro-1,3-benzodioxol-5-yl)cyclopropyl]carbonyl}amino)-7-methoxy-3,4-dihydro-2H-chromen-2-yl]benzoic acid)) 1 to 10 µM; (read-out: EC50 (without co-corrector), test compound without co-corrector) 1 to 10 µM. In addition, the “Maximum % activity (with co-corrector)” value (with co-corrector (2 μM of 3-[(2R,4R)-4-({[1-(2,2-difluoro-1,3-benzodioxol-5-yl)cyclopropyl]carbonyl}amino)-7-methoxy-3,4-dihydro-2H-chromen-2-yl]benzoic acid), maximum at any tested concentration, normalized to on-plate positive control) is on record as “+++ (≥350)”.
